For five targets, NP40-soluble protein abundance results are on record in the supplement of paper PMC6411743.

By UniProt entry, the sequences of proteins in these tests, tags left out. Where a name states a change or a piece, a line headed by the entry shows the natural chain unless it says otherwise.
UniProt Q96JB5: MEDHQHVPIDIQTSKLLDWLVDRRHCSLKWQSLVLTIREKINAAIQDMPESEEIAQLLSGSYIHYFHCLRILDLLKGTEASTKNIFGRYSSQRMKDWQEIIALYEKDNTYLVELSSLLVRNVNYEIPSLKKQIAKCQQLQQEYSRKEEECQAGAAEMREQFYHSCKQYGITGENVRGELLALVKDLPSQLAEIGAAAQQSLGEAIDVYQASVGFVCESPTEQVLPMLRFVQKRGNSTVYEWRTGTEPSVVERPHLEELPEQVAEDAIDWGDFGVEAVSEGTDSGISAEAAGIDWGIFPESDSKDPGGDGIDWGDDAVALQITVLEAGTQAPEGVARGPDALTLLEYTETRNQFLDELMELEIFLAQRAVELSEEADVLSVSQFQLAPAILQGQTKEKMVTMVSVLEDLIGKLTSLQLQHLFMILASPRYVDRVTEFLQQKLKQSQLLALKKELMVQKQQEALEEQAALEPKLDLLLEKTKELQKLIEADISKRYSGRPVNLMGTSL
UniProt Q96AB6: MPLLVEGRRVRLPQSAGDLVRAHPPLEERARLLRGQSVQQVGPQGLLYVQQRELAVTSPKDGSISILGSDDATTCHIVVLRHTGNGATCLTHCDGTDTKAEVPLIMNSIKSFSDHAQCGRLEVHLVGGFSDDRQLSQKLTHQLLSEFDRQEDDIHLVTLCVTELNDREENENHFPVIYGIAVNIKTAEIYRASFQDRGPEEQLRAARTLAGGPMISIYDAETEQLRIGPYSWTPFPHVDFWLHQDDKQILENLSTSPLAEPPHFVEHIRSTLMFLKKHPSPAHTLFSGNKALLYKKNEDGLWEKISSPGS
UniProt Q8WXX5: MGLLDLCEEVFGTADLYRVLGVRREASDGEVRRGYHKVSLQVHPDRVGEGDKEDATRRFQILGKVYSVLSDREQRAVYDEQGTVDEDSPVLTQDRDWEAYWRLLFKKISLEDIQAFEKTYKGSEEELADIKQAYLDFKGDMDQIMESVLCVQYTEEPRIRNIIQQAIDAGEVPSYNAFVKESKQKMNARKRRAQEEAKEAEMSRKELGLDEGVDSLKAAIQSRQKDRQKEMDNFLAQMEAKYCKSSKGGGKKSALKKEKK
UniProt Q969E8: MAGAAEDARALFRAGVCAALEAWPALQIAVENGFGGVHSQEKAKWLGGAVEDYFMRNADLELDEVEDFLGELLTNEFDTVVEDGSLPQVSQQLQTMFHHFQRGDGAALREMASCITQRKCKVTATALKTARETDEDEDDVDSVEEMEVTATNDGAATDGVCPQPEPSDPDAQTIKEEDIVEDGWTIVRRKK

± gives the standard deviation of the averaged measurements. The list shows a part of the results.

Compound in the test: Nc1nc2c(ncn2[C@@H]2O[C@H](COP(=O)(O)OP(=O)(O)OP(=O)(O)O)[C@@H](O)[C@H]2O)c(=O)[nH]1 [guanosine triphosphate]
Nature of the test: NP40-soluble protein abundance relative to vehicle (solubility fold change) (ratio); higher = more soluble protein in presence of GTP. How it is done: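 Solubility proteome profiling in Jurkat crude lysate. Lysate was treated with Mg-GTP (0.1-10 mM) for 10 min at room temperature and 3 min at 37 °C, then solubilised with 0.8% NP40 and benzonase, followed by ultracentrifugation. Proteins were quantified by TMT10 LC-MS/MS; the value is the NP40-soluble abundance relative to the NP40-processed vehicle, from 3 independent experiments.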

For the target CDK5RAP3 (UniProt Q96JB5), the NP40-soluble protein abundance runs as follows: (concentration: 0.1mM) 0.955 ± 0.083; (concentration: 0.5mM) 0.914 ± 0.044; (concentration: 1mM) 0.905 ± 0.06; (concentration: 2mM) 0.927 ± 0.034; (concentration: 4mM) 0.968 ± 0.067; (concentration: 6mM) 0.952 ± 0.031. The NP40-soluble protein abundance was determined as 0.946 ± 0.059 (concentration: 8mM) and 0.954 ± 0.029 (concentration: 10mM).
With NTAN1 (UniProt Q96AB6), the NP40-soluble protein abundance is, setting by setting: (concentration: 0.1mM) 1.03 ± 0.085; (concentration: 0.5mM) 0.99 ± 0.091; (concentration: 1mM) 0.974 ± 0.058; (concentration: 2mM) 0.978 ± 0.1; (concentration: 4mM) 0.936 ± 0.12; (concentration: 6mM) 0.939 ± 0.13. The NP40-soluble protein abundance is, setting by setting: (concentration: 8mM) 0.927 ± 0.13; (concentration: 10mM) 0.855 ± 0.1.
Consider DNAJC9 (UniProt Q8WXX5), for which the NP40-soluble protein abundance is 0.948 ± 0.017 (concentration: 0.1mM); 0.891 ± 0.088 (concentration: 0.5mM); 1.04 ± 0.053 (concentration: 1mM); 1.18 ± 0.066 (concentration: 2mM); 1.35 ± 0.099 (concentration: 4mM); 1.4 ± 0.091 (concentration: 6mM). Also, the NP40-soluble protein abundance was 1.43 ± 0.13 (concentration: 8mM) and 1.53 ± 0.11 (concentration: 10mM).
As to UniProt Q96B36 and related entries, the NP40-soluble protein abundance turned out to be 0.849 ± 0.034 (concentration: 0.1mM); 0.763 ± 0.064 (concentration: 0.5mM); 0.894 ± 0.02 (concentration: 1mM); 0.842 ± 0.015 (concentration: 2mM); 0.7714 ± 0.007 (concentration: 4mM); 0.7802 ± 0.0027 (concentration: 6mM). The NP40-soluble protein abundance runs as follows: (concentration: 8mM) 0.748 ± 0.12; (concentration: 10mM) 0.831 ± 0.028.
On to TSR2 (UniProt Q969E8), for which the NP40-soluble protein abundance is, setting by setting: (concentration: 0.1mM) 0.875 ± 0.18; (concentration: 0.5mM) 0.852 ± 0.13; (concentration: 1mM) 0.909 ± 0.099; (concentration: 2mM) 0.947 ± 0.12; (concentration: 4mM) 1.05 ± 0.19; (concentration: 6mM) 1.04 ± 0.16. For the same target, the NP40-soluble protein abundance reads like this: (concentration: 8mM) 1.07 ± 0.18; (concentration: 10mM) 1.18 ± 0.23.
